Measurements from paper PMC8362855.
These are yes or no findings as the source states them, for the method shown. Binding seen in cells or lysates may run through a third protein. Some results given as binding are weak or reduced against the parent protein; the word gives no strength.

Amino acid sequences for entries named in this document (tags omitted).
UniProt P09874: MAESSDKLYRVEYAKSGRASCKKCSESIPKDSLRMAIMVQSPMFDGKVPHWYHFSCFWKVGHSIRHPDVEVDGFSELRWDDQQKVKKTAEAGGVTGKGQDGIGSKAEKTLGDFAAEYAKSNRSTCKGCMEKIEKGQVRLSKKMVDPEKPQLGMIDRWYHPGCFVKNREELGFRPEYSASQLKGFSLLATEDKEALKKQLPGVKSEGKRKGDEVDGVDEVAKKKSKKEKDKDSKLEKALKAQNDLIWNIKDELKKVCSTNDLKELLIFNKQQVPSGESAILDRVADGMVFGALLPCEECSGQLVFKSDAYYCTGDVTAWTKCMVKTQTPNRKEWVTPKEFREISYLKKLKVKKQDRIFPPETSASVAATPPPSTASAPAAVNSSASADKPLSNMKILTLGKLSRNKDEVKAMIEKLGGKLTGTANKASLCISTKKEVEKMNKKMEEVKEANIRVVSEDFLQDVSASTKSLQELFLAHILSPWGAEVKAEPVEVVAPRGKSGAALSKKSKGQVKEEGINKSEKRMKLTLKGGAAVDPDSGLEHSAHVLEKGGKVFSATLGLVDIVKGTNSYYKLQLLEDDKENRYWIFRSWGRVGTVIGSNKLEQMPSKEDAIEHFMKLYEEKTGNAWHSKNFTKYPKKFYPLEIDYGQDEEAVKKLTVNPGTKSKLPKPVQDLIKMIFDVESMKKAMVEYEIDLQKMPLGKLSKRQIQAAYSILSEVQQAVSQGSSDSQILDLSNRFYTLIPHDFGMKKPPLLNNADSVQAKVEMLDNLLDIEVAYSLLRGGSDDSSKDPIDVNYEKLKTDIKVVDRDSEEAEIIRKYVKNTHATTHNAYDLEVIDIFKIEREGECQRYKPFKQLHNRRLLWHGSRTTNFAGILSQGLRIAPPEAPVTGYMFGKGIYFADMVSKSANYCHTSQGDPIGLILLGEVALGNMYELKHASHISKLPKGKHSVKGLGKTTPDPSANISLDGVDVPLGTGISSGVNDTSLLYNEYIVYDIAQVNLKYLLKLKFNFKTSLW

Target: poly (ADP-ribose) polymerase-1 (UniProt P09874)
Assay: co-IP; coimmunoprecipitation of VDR and PARP1 (Figure 5J); sample, precipitating antibody and conditions not described

B1: vitamin D receptor (receptor, UniProt P11473 1-427)
chain: MEAMAASTSLPDPGDFDRNVPRICGVCGDRATGFHFNAMTCEGCKGFFRRSMKRKALFTCPFNGDCRITKDNRRHCQACRLKRCVDIGMMKEFILTDEEVQRKREMILKRKEEEALKDSLRPKLSEEQQRIIAILLDAHHKTYDPTYSDFCQFRPPVRVNDGGGSHPSRPNSRHTPSFSGDSSSSCSDHCITSSDMMDSSSFSNLDLSEEDSDDPSVTLELSQLSMLPHLADLVSYSIQKVIGFAKMIPGFRDLTSEDQIVLLKSSAIEVIMLRSNESFTMDDMSWTCGNQDYKYRVSDVTKAGHSLELIEPLIKFQVGLKKLNLHEEEHVLLMAICIVSPDRPGVQDAALIEAIQDRLSNTLQTYIRCRHPPPGSHLLYAKMIQKLADLRSLNEEHSKQYRCLSFQPECSMKLTPLVLEVFGNEIS
binding: binds
